From patent publication US9546200B2, “Peptide for protection of allergic respiratory disorders” (Board of Supervisors of Louisiana State University and …, priority 2011, dated 2017)
At least one peptide structure holds a part that was inferred or is arguable (an end, a ring closure or a residue). Residues, ends and D or L forms follow the SMILES beside them.

What was measured:
[1] = tested on: rabbit polyclonal antibody; test: competitive inhibition ELISA with Peptide-1 dilutions; format: binding; settings: Peptide-1 dilutions starting at 1000 μg/mL, 1:5000 diluted rabbit polyclonal antibody; FIG. 2
foals = test: vaccination of foals: Peptide-1 specific total IgG antibody titer in serum by ELISA; format: in vivo, horse
[2] = tested on: recurrent airway obstruction (RAO); test: protection of adult horses susceptible to RAO (planned study); format: in vivo, horse; settings: adult horses with history of RAO; peptide 0.1 mg/kg or antibodies 1 mg/kg subcutaneously; expected

CC[C@H](C)[C@H](NC(=O)[C@H](CCCCN)NC(=O)[C@H](CC(=O)O)NC(=O)[C@H](CCSC)NC(=O)[C@H](CC(C)C)NC(=O)[C@H](CCCCN)NC(=O)[C@H](CC(C)C)NC(=O)[C@@H](NC(=O)[C@H](CO)NC(=O)[C@H](CC(=O)O)NC(=O)[C@H](CCCCN)NC(=O)[C@@H](NC(=O)[C@H](CC(N)=O)NC(=O)[C@@H](N)CCCCN)[C@@H](C)O)[C@@H](C)CC)C(=O)N[C@@H](C)C(=O)N[C@@H](CCCCN)C(=O)N[C@@H](CO)C(=O)N1CCC[C@H]1C(=O)N[C@@H](CC(C)C)C(=O)N[C@@H](CS)C(=O)N[C@@H](C)C(=O)O [Peptide-1] (H-KNTKDSILKLMDKIAKSPLCA-OH)
inhibition of antibody binding to peptide coated plate [1]: dependent on Peptide-1 concentration
antibody production (foals; Foal #2, 0.1 mg/kg injected subcutaneously with an adjuvant, FIG. 5A): can produce significant amounts of antibodies
day of peak antibody titer after the booster (foals; Foal #2, 0.1 mg/kg subcutaneous with adjuvant, booster on day 29, FIG. 5A): 36 days
day of first peak of antibody titer (foals; Foal #3, 0.1 mg/kg subcutaneous with adjuvant, before booster on day 29, FIG. 5B): 22 days
day until which antibody titer did not increase (foals; Foal #3, 0.1 mg/kg subcutaneous with adjuvant, FIG. 5B): ~15 days
immunologically effective amount (foals; given subcutaneously): 0.1 mg/kg body weight
symptoms of RAO during the RAO season [2]: fewer symptoms and less severe symptoms of RAO
